Data as given in PubChem BioAssay AID1259308 (NCATS, 2017).
Aim: 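Candidate targets for better recombinant protein yield in mammalian cells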 (primary screen). System: human HEK293 embryonic kidney cells stably expressing firefly luciferase (HEK-CMV-Luc2-Hygro). Reagent: single siRNA against human genes, 0.8 pmol siRNA per well. Duration: 72 h. Measured: 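Luciferase light (ONE-Glo) measured on one replicate plate set and viability (CellTiter-Glo) on the other, scaled to a negative control siRNA, with robust z-scores and luciferase per cell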. Scale: total luciferase, z-score and total luciferase, % of control: higher = more reporter protein produced; luciferase per cell, z-score: higher = more reporter output per viable cell. Active means: 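Active when the median/MAD z-score for overall luciferase is greater than 3; a gene was taken forward for validation with new siRNAs if at least two of its three siRNAs passed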. Meaning of the calls: active = raised luciferase; inactive = no rise.
The deposit covers about 59,000 reagents; shown is an unselected part. About 1,510 of them (2.6%) were called active. 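Calls use total luciferase alone and ignore viability, so some active siRNAs may act by altering cell number.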 The numbers tell different reagents against one gene apart. Further read-outs or replicates are left out here.

Gene | reagent no. | total luciferase, z-score | total luciferase, % of control | luciferase per cell, z-score | outcome
OR6Y1 (olfactory receptor family 6 subfamily Y member 1) | 1 | 0.626 | 94.3 | 0.564 | inactive
OR6Y1 (olfactory receptor family 6 subfamily Y member 1) | 2 | 0.481 | 91.5 | 0.926 | inactive
OR6Y1 (olfactory receptor family 6 subfamily Y member 1) | 3 | 3.18 | 145 | 1.62 | active
PIH1D2 (PIH1 domain containing 2) | 1 | 0.72 | 96.2 | 0.529 | inactive
PIH1D2 (PIH1 domain containing 2) | 2 | 5.47 | 191 | 3.13 | active
PIH1D2 (PIH1 domain containing 2) | 3 | 0.0947 | 83.8 | -0.645 | inactive
TUBE1 (tubulin epsilon 1) | 1 | -0.466 | 72.6 | -1.33 | inactive
TUBE1 (tubulin epsilon 1) | 2 | -1.06 | 60.8 | -1.57 | inactive
TUBE1 (tubulin epsilon 1) | 3 | -0.41 | 73.7 | -1.01 | inactive
PPIB (peptidylprolyl isomerase B) | 1 | -1.19 | 58.2 | -1.6 | inactive
PPIB (peptidylprolyl isomerase B) | 2 | -1.15 | 59 | -1.04 | inactive
PPIB (peptidylprolyl isomerase B) | 3 | -0.123 | 79.4 | -0.161 | inactive
RTN4 (reticulon 4) | 1 | 0.463 | 91.1 | 0.0417 | inactive
RTN4 (reticulon 4) | 2 | -0.11 | 79.7 | -0.332 | inactive
RTN4 (reticulon 4) | 3 | 0.526 | 92.3 | 0.552 | inactive
CDH2 (cadherin 2) | 1 | -0.736 | 67.2 | -1.12 | inactive
CDH2 (cadherin 2) | 2 | 0.364 | 89.1 | 0.956 | inactive
CDH2 (cadherin 2) | 3 | -1.12 | 59.7 | -1.04 | inactive
TNNT3 (troponin T3, fast skeletal type) | 1 | 1.3 | 108 | 1.16 | inactive
TNNT3 (troponin T3, fast skeletal type) | 2 | 0.22 | 86.3 | 0.0944 | inactive
TNNT3 (troponin T3, fast skeletal type) | 3 | 0.551 | 92.8 | -0.0994 | inactive
DEXI (Dexi homolog) | 1 | -0.465 | 72.6 | -1.01 | inactive
DEXI (Dexi homolog) | 2 | 1.6 | 114 | 0.922 | inactive
DEXI (Dexi homolog) | 3 | -0.663 | 68.7 | -0.954 | inactive
SYNC (syncoilin, intermediate filament protein) | 1 | -1.61 | 49.9 | -1.11 | inactive
SYNC (syncoilin, intermediate filament protein) | 2 | -0.241 | 77.1 | 1.4 | inactive
SYNC (syncoilin, intermediate filament protein) | 3 | 0.367 | 89.2 | 0.205 | inactive
KIF6 (kinesin family member 6) | 1 | 0.342 | 88.7 | 0.16 | inactive
KIF6 (kinesin family member 6) | 2 | -0.321 | 75.5 | -0.696 | inactive
KIF6 (kinesin family member 6) | 3 | 0.471 | 91.3 | -0.113 | inactive
E2F1 (E2F transcription factor 1) | 1 | 3.21 | 146 | 2.77 | active
E2F1 (E2F transcription factor 1) | 2 | 0.0709 | 83.3 | 0.241 | inactive
E2F1 (E2F transcription factor 1) | 3 | -0.416 | 73.6 | 0.123 | inactive
PFKFB4 (6-phosphofructo-2-kinase/fructose-2,6-biphosphatase 4) | 1 | -1.44 | 53.3 | -0.534 | inactive
PFKFB4 (6-phosphofructo-2-kinase/fructose-2,6-biphosphatase 4) | 2 | -0.104 | 79.8 | -0.852 | inactive
PFKFB4 (6-phosphofructo-2-kinase/fructose-2,6-biphosphatase 4) | 3 | 1.16 | 105 | 0.392 | inactive
ATXN7 (ataxin 7) | 1 | 0.423 | 90.3 | 1.61 | inactive
ATXN7 (ataxin 7) | 2 | -0.644 | 69.1 | -0.197 | inactive
ATXN7 (ataxin 7) | 3 | -0.704 | 67.9 | -1.42 | inactive
NECTIN1 (nectin cell adhesion molecule 1) | 1 | -0.288 | 76.2 | -0.0304 | inactive
NECTIN1 (nectin cell adhesion molecule 1) | 2 | 0.301 | 87.9 | 0.789 | inactive
NECTIN1 (nectin cell adhesion molecule 1) | 3 | -0.793 | 66.1 | -1.31 | inactive
CATSPER1 (cation channel sperm associated 1) | 1 | -0.209 | 77.7 | 0.15 | inactive
CATSPER1 (cation channel sperm associated 1) | 2 | 1.7 | 116 | 1.45 | inactive
CATSPER1 (cation channel sperm associated 1) | 3 | 0.16 | 85.1 | -0.618 | inactive
DUS3L (dihydrouridine synthase 3 like) | 1 | 0.633 | 94.5 | 0.00305 | inactive
DUS3L (dihydrouridine synthase 3 like) | 2 | -0.532 | 71.3 | -0.93 | inactive
DUS3L (dihydrouridine synthase 3 like) | 3 | 0.0519 | 82.9 | 1.6 | inactive
VRK1 (VRK serine/threonine kinase 1) | 1 | -0.237 | 77.2 | -0.365 | inactive
VRK1 (VRK serine/threonine kinase 1) | 2 | -0.478 | 72.4 | -0.738 | inactive
VRK1 (VRK serine/threonine kinase 1) | 3 | 0.105 | 84 | -0.535 | inactive
TCF7L1 (transcription factor 7 like 1) | 1 | -2.14 | 39.4 | -2.84 | inactive
TCF7L1 (transcription factor 7 like 1) | 2 | 0.527 | 92.4 | 1.07 | inactive
TCF7L1 (transcription factor 7 like 1) | 3 | 0.35 | 88.8 | -0.257 | inactive
ANKRD7 (ankyrin repeat domain 7) | 1 | 0.11 | 84.1 | 0.531 | inactive
ANKRD7 (ankyrin repeat domain 7) | 2 | 0.89 | 99.6 | 0.368 | inactive
ANKRD7 (ankyrin repeat domain 7) | 3 | 0.785 | 97.5 | 1.3 | inactive
DAP3 (death associated protein 3) | 1 | 0.194 | 85.8 | -0.176 | inactive
DAP3 (death associated protein 3) | 2 | -0.369 | 74.5 | -0.314 | inactive
DAP3 (death associated protein 3) | 3 | -1.85 | 45 | -1.78 | inactive
MCUB | 1 | 4.6 | 173 | 2.87 | active
MCUB | 2 | -2.12 | 39.8 | -3.14 | inactive
MCUB | 3 | -1.15 | 59.1 | -1.56 | inactive
NFKBID (NFKB inhibitor delta) | 1 | 0.0785 | 83.4 | -0.176 | inactive
NFKBID (NFKB inhibitor delta) | 2 | -2.17 | 38.8 | -2.6 | inactive
NFKBID (NFKB inhibitor delta) | 3 | 1.8 | 118 | 1.1 | inactive
TECRL (trans-2,3-enoyl-CoA reductase like) | 1 | -1.23 | 57.5 | -0.566 | inactive
TECRL (trans-2,3-enoyl-CoA reductase like) | 2 | -0.948 | 63 | -0.905 | inactive
TECRL (trans-2,3-enoyl-CoA reductase like) | 3 | 1.63 | 114 | 1.46 | inactive
LDLRAD2 (low density lipoprotein receptor class A domain containing 2) | 1 | 3.43 | 150 | 3.24 | active
LDLRAD2 (low density lipoprotein receptor class A domain containing 2) | 2 | 1.41 | 110 | 1.14 | inactive
LDLRAD2 (low density lipoprotein receptor class A domain containing 2) | 3 | 0.0852 | 83.6 | -0.0204 | inactive
PPP1R8 (protein phosphatase 1 regulatory subunit 8) | 1 | -0.116 | 79.6 | -0.0278 | inactive
PPP1R8 (protein phosphatase 1 regulatory subunit 8) | 2 | 0.00706 | 82 | 0.18 | inactive
PPP1R8 (protein phosphatase 1 regulatory subunit 8) | 3 | 0.818 | 98.2 | 0.951 | inactive

Targets above whose gene name begins with S or s (3):
Gene | reagent no. | total luciferase, z-score | total luciferase, % of control | luciferase per cell, z-score | outcome
SYNC (syncoilin, intermediate filament protein) | 1 | -1.61 | 49.9 | -1.11 | inactive
SYNC (syncoilin, intermediate filament protein) | 2 | -0.241 | 77.1 | 1.4 | inactive
SYNC (syncoilin, intermediate filament protein) | 3 | 0.367 | 89.2 | 0.205 | inactive
